Earlier results, collected in patent US9220771B2, “Peptide for use in the treatment of breast cancer and/or bone metastases” (MERCK PATENT GMBH, priority 2010, dated 2015).
For at least one compound, name, drawing or mass did not settle the structure.

Test system: glioblastoma multiforme
Conditions: radiotherapy and temozolomide; radiotherapy alone 12.1 months; cited from earlier work

Cn1nnc2c(C(N)=O)ncn2c1=O [temozolomide, 3,4-dihydro-3-methyl-4-oxoimidazo[5,1-d]-as-tetrazine-8-carboxamide]
median survival of resected patients: 14.6 months
